For at least one compound, name, drawing or mass did not settle the structure.
Molecular target: T1, KATP ion channels of beta cells in the pancreas (HIT-T15 cells) (UniProt A0A1U7QRT4+Q09427)
T1 construct: endogenous in cells; host or cells: HIT-T15 cells
Experiment: Electro-physiological experiment: whole cell patch clamp recording of KATP current
Assay type: cell-based
Details: single compounds vs GBC; FIG. 5
Experimental: HIT-T15 cells used for the experimental examples below were cultivated in an RPMI 1640 culture medium containing horse serum (10%, v/v), fetal bovine serum (2.5% v/v), and 1% penicillin-streptomycin, in a 5% CO2 incubator at 37° C.
Since type II diabetes is directly related to the KATP ion channels of beta cells in the pancreas (Tarasov, A. et al., Diabetes., 53(3), pp. S113-S122, 2004), it was tested whether or not the Lithospermum erythrorhizon extract obtained in the above example or the shikonin compounds isolated therefrom blocks the KATP ion channels of beta cells in the pancreas.
The ion current was recorded by a conventional whole cell patch clamp method, using a patch clamp amplifier (EPC-9, Heka Elektronik, Lambrecht, Germany). The measurement electrode was pulled from a borosilicate glass capillary using a puller (DMZ-Universal Puller; Dagan Co., USA). […] To measure the KATP electric current, the cell solution was substituted with 110 mM of a barium solution (mM: 110 BaCl2, 10 HEPES, 10 glucose), after which the membrane potential was fixed at −60 mV, and the resulting introvert current was recorded. The experiment results were stored in a Pentium level IBM computer and analyzed using Pulse/Pulsefit (v8.65) software (Heka Elektronik, Lambrecht, Germany), and all of the experiments were performed at room temperature.

Sequences of proteins named here, by UniProt entry; tags and fusion partners are left off. A change or cut given only in a name is not applied to a line headed by its entry. Residues count along the entry.
UniProt A0A1U7QRT4, 1-390: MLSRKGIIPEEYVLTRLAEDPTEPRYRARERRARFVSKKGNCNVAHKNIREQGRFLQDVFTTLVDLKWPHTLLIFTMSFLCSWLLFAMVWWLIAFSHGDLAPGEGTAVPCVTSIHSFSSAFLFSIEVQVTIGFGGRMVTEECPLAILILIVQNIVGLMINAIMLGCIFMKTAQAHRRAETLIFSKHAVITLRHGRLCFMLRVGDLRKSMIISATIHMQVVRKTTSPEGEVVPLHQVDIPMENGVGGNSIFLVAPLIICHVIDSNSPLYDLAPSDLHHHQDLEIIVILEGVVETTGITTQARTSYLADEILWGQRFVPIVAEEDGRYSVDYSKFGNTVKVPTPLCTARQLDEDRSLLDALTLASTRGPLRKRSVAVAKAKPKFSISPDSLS
UniProt Q09427: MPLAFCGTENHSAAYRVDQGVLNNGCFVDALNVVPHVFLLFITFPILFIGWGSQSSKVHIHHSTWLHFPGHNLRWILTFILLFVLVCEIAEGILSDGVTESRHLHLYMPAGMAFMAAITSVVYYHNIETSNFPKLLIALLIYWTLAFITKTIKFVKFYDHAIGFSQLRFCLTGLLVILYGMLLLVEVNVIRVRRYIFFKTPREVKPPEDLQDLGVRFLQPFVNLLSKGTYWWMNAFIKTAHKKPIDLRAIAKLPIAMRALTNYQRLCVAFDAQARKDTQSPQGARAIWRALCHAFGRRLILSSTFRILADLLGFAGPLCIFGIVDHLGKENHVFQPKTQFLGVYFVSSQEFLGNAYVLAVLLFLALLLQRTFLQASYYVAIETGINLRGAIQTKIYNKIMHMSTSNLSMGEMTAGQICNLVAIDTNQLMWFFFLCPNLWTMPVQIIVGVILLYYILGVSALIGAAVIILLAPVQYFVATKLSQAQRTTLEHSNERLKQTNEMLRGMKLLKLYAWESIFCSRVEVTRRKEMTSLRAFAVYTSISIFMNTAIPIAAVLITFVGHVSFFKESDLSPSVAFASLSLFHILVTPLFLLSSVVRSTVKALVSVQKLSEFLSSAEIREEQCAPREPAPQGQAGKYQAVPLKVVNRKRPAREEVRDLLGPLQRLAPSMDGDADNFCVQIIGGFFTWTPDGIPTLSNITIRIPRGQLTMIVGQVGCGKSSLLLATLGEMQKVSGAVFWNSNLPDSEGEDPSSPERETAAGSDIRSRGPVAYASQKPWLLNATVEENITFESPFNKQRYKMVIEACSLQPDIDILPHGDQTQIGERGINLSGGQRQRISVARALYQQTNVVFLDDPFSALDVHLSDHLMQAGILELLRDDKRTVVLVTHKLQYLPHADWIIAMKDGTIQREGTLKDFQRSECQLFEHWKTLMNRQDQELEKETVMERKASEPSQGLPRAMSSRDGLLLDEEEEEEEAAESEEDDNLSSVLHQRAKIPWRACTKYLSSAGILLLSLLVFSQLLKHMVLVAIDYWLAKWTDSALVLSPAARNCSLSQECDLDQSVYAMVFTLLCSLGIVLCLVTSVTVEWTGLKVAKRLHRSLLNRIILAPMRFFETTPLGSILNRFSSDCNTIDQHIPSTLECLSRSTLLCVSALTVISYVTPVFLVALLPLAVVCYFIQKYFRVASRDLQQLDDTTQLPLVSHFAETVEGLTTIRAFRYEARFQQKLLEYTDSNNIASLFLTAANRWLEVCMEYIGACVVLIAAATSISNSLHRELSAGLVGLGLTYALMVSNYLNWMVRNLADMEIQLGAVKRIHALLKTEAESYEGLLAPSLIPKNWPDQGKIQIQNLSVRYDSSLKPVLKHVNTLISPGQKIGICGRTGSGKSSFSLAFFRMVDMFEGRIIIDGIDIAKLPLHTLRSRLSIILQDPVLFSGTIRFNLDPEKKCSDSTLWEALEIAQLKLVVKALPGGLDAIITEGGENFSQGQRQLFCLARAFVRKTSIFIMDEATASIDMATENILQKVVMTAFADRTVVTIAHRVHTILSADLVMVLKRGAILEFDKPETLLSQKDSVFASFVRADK

For `CC(=O)O[C@H](CC=C(C)C)C1=CC(=O)c2c(O)ccc(O)c2C1=O` [AS, acetyl shikonin, reference compound], the “inhibition of KATP ion channels by shikonin single compounds compared with GBC” value was “inhibiting levels higher than those of GBC”.

From patent publication US20090318552A1, “Pharmaceutical composition comprising shikonin derivatives from lithospermum erythrorhizo dor treating or preventing diabetes mellitus and the use thereof” (priority 2006, published 2009)
